Source: PubChem BioAssay AID651558 (National Center for Advancing Translational Sciences (NCATS), 2012)
About 480 (40%) of roughly 1,200 compounds were called active. Inconclusive results, whose numbers are uncertain, are shown with a selection of clear calls. The call rests on the fitted dose curve; in most records, active means well fitted inhibition curve with a large enough effect; inconclusive means small, poorly fitted or top-dose-only effect; inactive means no such curve, though single readings can be large or run the other way. Where the call is inconclusive, the potency comes from a doubtful curve fit.

Test: qHTS Assay to Find Inhibitors of Chronic Active B-Cell Receptor Signaling: Hit Validation in Primary Screen; further: nearly all actives have a fitted effect of over 75% in size
Conditions: ABC-DLBCL IkB-luc/CBR ratio luminescence, 4 h; series mostly up to 46.1 µM
In short: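 TMD8 ABC-DLBCL cells carrying doxycycline-inducible IkBa-green luciferase fusion and free red luciferase, 0.5% FBS, dosed 46 uM–3 nM with doxycycline for 4 h at 37C. Green/red luminescence ratio normalized to basal and 10 uM MG-132.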
Potency means the concentration at half of the fitted maximal effect.

SMILES	Potency
C=CCN(C(=O)CSC1=NC(=O)CN1C(C)=O)c1nc(C)c(-c2ccccc2)s1	inconclusive: 16.4 µM [inhibitor, partial curve]
COc1ccc(C2=NC(C)(C)Cc3cc(OC)c(OC)cc32)cc1OC	inconclusive: 20.6 µM [inhibitor, partial curve]
CN(C(=O)c1ccc(-c2nn(C)c(=O)c3ccccc23)cc1)C1CCCCC1	inconclusive: 25.9 µM [inhibitor, partial curve, poor fit]
Cc1noc(C)c1CSc1ncnc2ccccc12	inconclusive: 14.6 µM [inhibitor, partial curve]
NC(=S)N=Nc1c(O)n(Cc2ccc(Br)cc2)c2ccccc12	inconclusive: 2.59 µM [inhibitor, full curve]
O=C(Nc1ccc(N2CCCC2)cc1)c1cc(Cl)ccc1Cl	inconclusive: 4.61 µM [inhibitor, partial curve]
CCc1cc2c(SCC(=O)Nc3ccc(NC(C)=O)cc3)ncnc2s1	inconclusive: 8.2 µM [inhibitor, partial curve, poor fit]
Cc1ccccc1Nc1nc(N)nc(COC(=O)c2cccc(S(=O)(=O)N(C)C)c2)n1	inconclusive: 23.1 µM [inhibitor, partial curve]
CN(CC(=O)Nc1ccc2c(c1)OCCO2)Cc1nc2ccccc2c(=O)[nH]1	inactive
Cc1ccc(C)c(Cn2c(=O)n(-c3ccc(CC(=O)NCc4ccco4)cc3)c(=O)c3sccc32)c1	inconclusive: 4.11 µM [inhibitor, partial curve, poor fit]
COc1cc(OC)cc(C(=O)N[C@H](C(=O)Nc2nc3ccccc3[nH]2)C(C)C)c1	active: 1.84 µM
CCC(C)NC(=O)c1ccccc1NC(=O)c1ccc(CSc2ccccc2)cc1 (centres undefined)	inactive
N#CCCn1cc(/C=N/NC(N)=S)c(-c2ccc(Br)cc2)n1	inconclusive: 20.6 µM [inhibitor, partial curve, poor fit]
Cc1[nH]n(C(N)=S)c(=O)c1N=Nc1cccc(Cl)c1	inactive
COc1cc(C(=O)NCc2cc(C)nc3ccccc23)cc(OC)c1OC	inconclusive: 18.4 µM [inhibitor, partial curve]
COc1ccccc1NC(=O)c1c(N=Cc2c(O)ccc3ccccc23)cnn1C	active: 3.26 µM
COc1cccc(N2CCN(C(=O)c3ccc(CS(=O)c4ccc(Cl)cc4)o3)CC2)c1 (centres undefined)	active: 23.1 µM
CCOc1cccc(C2CC(=O)Nc3cc(OC)c(OC)cc32)c1 (centres undefined)	inconclusive: 10.3 µM [inhibitor, partial curve]
COc1cc2c(cc1OC)-c1cc(NC3CCCC3)nc(=O)n1CC2	inconclusive: 16.4 µM [inhibitor, partial curve]
Clc1ccc(C2=Nn3c(nnc3-c3cc(-c4ccccc4)n[nH]3)SC2)cc1	inconclusive: 4.11 µM [inhibitor, full curve]
Cc1cc(C(N)=O)nn1-c1c(Cl)cc(Cl)cc1Cl	inactive
C=CCNC(=S)N/N=C/c1cn(C)c2ccccc12	inconclusive: 18.4 µM [inhibitor, partial curve]
COc1ccc(C2=Nn3c(nnc3-c3ccc(OC)cc3)SC2)cc1	active: 14.6 µM

SMILES	Potency
Cc1cc(C)c2nc(C(F)(F)F)nc(NCCCN3CCOCC3)c2c1	inconclusive: 7.31 µM [inhibitor, partial curve]
COc1cc(S(=O)(=O)N2CCCCC2)ccc1NC(=O)/C=C/c1ccccc1	inconclusive: 3.66 µM [inhibitor, partial curve]
Oc1ccccc1-n1c(-c2ccccc2)ccc1-c1ccccc1	inactive
ClCc1nc2ccccc2c2ccccc12	inconclusive: 20.6 µM [inhibitor, single point]
CCCCn1c(SCC(=O)c2cc(OC)ccc2OC)nc2cc(S(N)(=O)=O)ccc21	inconclusive: 4.61 µM [inhibitor, partial curve]
Cc1c(CCC(=O)O)c(=O)oc2cc3oc4c(c3cc12)CCCC4	inconclusive: 0.651 µM [inhibitor, full curve]
S=c1nc2ccccc2c2nc(-c3ccccc3Br)[nH]n12	inconclusive: 29.1 µM [inhibitor, single point]
Cc1cc(C(=O)OCC(=O)NCc2ccco2)c(C)n1-c1ccc(F)cc1	inactive
O=C(NN=C(c1ccccc1)c1ccccn1)c1ccccc1	inconclusive: 18.4 µM [inhibitor, single point]
COc1cc2c(cc1OC)C(/C(C#N)=N\O)=NC(C)(C)C2	inactive
Cc1c(NC(=S)NC(=O)C(c2ccccc2)c2ccccc2)cccc1C(=O)O	inconclusive: 18.4 µM [inhibitor, partial curve, poor fit]
OCc1ccnc2c(O)cccc12	inactive
CC1=CC(C)(C)N2C(=O)C(=O)c3cc(OC(=O)c4ccco4)cc1c32	inconclusive: 25.9 µM [inhibitor, partial curve, poor fit]
CC(C)N1C(=O)/C(=C\c2nc3ccccc3c(=O)[nH]2)c2ccccc21	inconclusive: 13 µM [inhibitor, partial curve]
COc1ccc(Nc2nc(N)nc(CCl)n2)cc1	inconclusive: 25.9 µM [inhibitor, partial curve, poor fit]
CCOc1c(OC)cccc1C1CC(=O)Nc2cc(OC)c(OC)cc21 (centres undefined)	inconclusive: 16.4 µM [inhibitor, partial curve]
CC[C@]12c3[nH]c4cc(CCC(=O)N(C)C)ccc4c3CCN1C(=O)[C@@H](CC(=O)NCc1ccco1)C[C@@H]2C(=O)N1CCN(C(=O)c2ccco2)CC1	inconclusive: 18.4 µM [inhibitor, partial curve]
Cc1cc(C(=O)N/N=C/c2ccc(N(C)C)cc2)c2ccccc2n1	inconclusive: 23.1 µM [inhibitor, partial curve, poor fit]
COCCNC(=S)N/N=C(\C)c1ccc(Cl)s1	inactive
Cc1ncc(CO)c2c1Oc1nc(-c3ccccc3)nc(SCC(=O)N3CCOCC3)c1C2	inconclusive: 4.61 µM [inhibitor, partial curve]
COc1cc2c(cc1[N+](=O)[O-])n(C(C)C)c(=O)n2C(C)C	inconclusive: 11.6 µM [inhibitor, partial curve]
CC(C)COc1ccc(C(=O)Nc2cc(S(=O)(=O)N3CCOCC3)ccc2N2CCCC2)cc1	inactive
Cc1cccc(NC(=S)N/N=C/C(C)c2ccccc2)c1C (centres undefined)	inactive

Gathered by group, the compounds so far with bromine (3)
SMILES	Potency
NC(=S)N=Nc1c(O)n(Cc2ccc(Br)cc2)c2ccccc12	inconclusive: 2.59 µM [inhibitor, full curve]
N#CCCn1cc(/C=N/NC(N)=S)c(-c2ccc(Br)cc2)n1	inconclusive: 20.6 µM [inhibitor, partial curve, poor fit]
S=c1nc2ccccc2c2nc(-c3ccccc3Br)[nH]n12	inconclusive: 29.1 µM [inhibitor, single point]

Remaining list, next part

SMILES	Potency
CCN(CC)c1ccc2c(C)c(CO)c(=O)oc2c1	inconclusive: 20.6 µM [inhibitor, partial curve]
C/C(=N/NC(=O)COc1cc(C)ccc1C(C)C)C(=O)O	inactive
CCCCn1c(-c2csc(C(C)C)c2)n[nH]c1=S	inactive
Cc1ccc(C)c(-n2c3nc(=O)[nH]c(=O)c-3cc3cc([N+](=O)[O-])ccc32)c1	inactive
CC1(C)Cc2c(sc3ncnc(NNC(=S)NCc4ccccc4)c23)CO1	inconclusive: 2.06 µM [inhibitor, partial curve]
COc1cc(/C=N/NC(=O)NC2CCCCC2)ccc1O	inconclusive: 13 µM [inhibitor, partial curve]
Cc1ccc([N+](=O)[O-])cc1N=Nc1c(-c2ccc([N+](=O)[O-])cc2)[nH]n(C(N)=S)c1=O	inconclusive: 4.11 µM [inhibitor, full curve]
Cc1ccc(/C=N/NC(=O)c2cc(-c3ccncc3)nc3ccccc23)o1	active: 5.17 µM
COc1cccc(N2CC(O)=C(c3nc4ccccc4s3)C2=N)c1	active: 23.1 µM
CCOC(=O)C1=C(C2=CCCCC2)c2ccc(OC)cc2N(S(=O)(=O)C(F)(F)F)C1C(=O)OCC (centres undefined)	inconclusive: 20.6 µM [inhibitor, single point]
Cc1cccc(NC(=S)N=Nc2c(O)n(C)c3ccc(S(=O)(=O)N4CCOCC4)cc23)c1	inactive
COc1cc(C(=O)N/N=C(\Cc2ncc[nH]2)c2ccccc2)cc(OC)c1OC	inactive
Cc1c(C(=O)N/N=C/c2ccc(Cl)cc2)[nH]c2ccc(Cl)cc12	active: 0.731 µM
COc1ccc2c(C#CCCO)c(-c3ccc(S(C)(=O)=O)cc3)sc2c1	inconclusive: 25.9 µM [inhibitor, partial curve]
N#Cc1c(NC(=O)CSc2ncn[nH]2)sc2c1CCCC2	inconclusive: 20.6 µM [inhibitor, partial curve]
N#CC1=C(N)C(C#N)(C#N)[C@H](c2cccnc2)[C@H]2CN(C(=O)OCc3ccccc3)CC=C12	inconclusive: 20.6 µM [inhibitor, partial curve]
C=CCOc1ccc2ccccc2c1CNn1c(C)n[nH]c1=S	inconclusive: 10.3 µM [inhibitor, partial curve]
CCOc1ccc(CCNC(=O)c2cc(=O)[nH]c3ccc(S(=O)(=O)N4CCCCC4C)cc23)cc1OCC (centres undefined)	inactive
O=C(N1CCN(c2ccccn2)CC1)N1c2ccccc2Sc2ccccc21	active: 7.31 µM
CN[C@H]1CCc2cc(OC)c(OC)c(OC)c2-c2ccc(N(C)CC(OC)OC)c(=O)cc21	inconclusive: 5.8 µM [inhibitor, full curve]
COc1ccccc1/C=N/NC(=S)Nc1cccnc1	inconclusive: 20.6 µM [inhibitor, partial curve, poor fit]
C=CCNC(=S)N/N=C/c1ccc(C(F)(F)F)cc1	inactive
COc1cc(OC)c2c(=O)cc(-c3cccnc3)oc2c1	inconclusive: 20.6 µM [inhibitor, partial curve]
